PubChem BioAssay AID1053208 – Peter MacCallum Cancer Centre – 2014

Aim: 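Genes whose silencing cuts survival of bone tumour cells only with doxorubicin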 (primary screen)
Cells: mouse osteosarcoma cells, early-passage culture from an engineered mouse model of fibroblastic bone tumour
Reagent: siRNA pool against mouse genes, 40 nM
Time to read-out: about 120 h (48 h before drug, then 72 h with drug)
Challenge: doxorubicin 100 nM for 72 h, roughly 30-40% inhibitory dose
Measurement: 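Luminescent ATP signal taken as viability with or without 100 nM doxorubicin for 72 h; mean of two wells set against non-targeting siRNA and turned into robust z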
Reading the numbers: viability z-score with doxorubicin and doxorubicin viability vs non-targeting: higher = more viable cells under doxorubicin; viability z-score without drug: higher = more viable cells with knock-down alone; z-score of drug to no-drug ratio: higher = less drug sensitisation by knock-down
Call rule: 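a pool counts as active when its viability z-score with doxorubicin is -2 or below and its z-score without drug lies between -2 and 2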
The deposit covers about 17,000 reagents; this is an unselected part. 788 of them (4.7%) were called active. 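Calls rest on z-score classes alone; an extra cut-off of viability at most 70% of control was not applied to them.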 A number with no mark means an inactive call. Reagent sequences are not shown.

gene symbol | combined z-score class | viability z-score with doxorubicin | viability z-score without drug | z-score of drug to no-drug ratio | doxorubicin viability vs non-targeting
Colgalt1 | no change with or without drug | 0.67 | -0.17 | 0.9 | 1
Ccdc12 | no change with or without drug | -1.12 | -0.17 | -1.01 | 0.84
Tle2 | low cell count without drug only | -0.79 | -2.02 | 0.79 | 0.87
Acly | no change with or without drug | 0.34 | 0.17 | 0.34 | 0.97
Tac2 | no change with or without drug | 0.22 | -0.34 | 0.56 | 0.96
Lypd11 | no change with or without drug | 0 | -0.67 | 0.56 | 0.94
Bmi1 | no change with or without drug | 0.67 | 0.17 | 0.67 | 1
Mlst8 | no change with or without drug | -0.11 | -0.84 | 0.56 | 0.93
Arhgap22 | no change with or without drug | 0.22 | 0.34 | 0.11 | 0.96
Hap1 | no change with or without drug | 1.24 | -1.69 | 2.92 | 1.05
Nr3c1 | no change with or without drug | 0.67 | 1.85 | -0.45 | 1
Enpp1 | no change with or without drug | 0.9 | 1.01 | 0.34 | 1.02
Selenoi | no change with or without drug | -0.56 | -0.84 | 0.11 | 0.89
Senp7 | no change with or without drug | 0.45 | 0.84 | 0 | 0.98
Hemk2 | no change with or without drug | 0.56 | 0.84 | 0.11 | 0.99
C1qtnf9 | no change with or without drug | -0.9 | -0.17 | -0.79 | 0.86
Dlk2 | low cell count with doxorubicin only (active) | -2.25 | -1.35 | -1.46 | 0.74
Angpt4 | no change with or without drug | -1.12 | -1.85 | 0.22 | 0.84
Rps6ka1 | no change with or without drug | -1.12 | -1.69 | 0.11 | 0.84
Mrps14 | no change with or without drug | 0.9 | -1.85 | 2.59 | 1.02
Tbx3 | no change with or without drug | 0 | -0.17 | 0.22 | 0.94
Dennd1b | no change with or without drug | 0.56 | -0.84 | 1.35 | 0.99
Rida | no change with or without drug | 1.8 | 0.84 | 1.35 | 1.1
Serpina12 | no change with or without drug | 0.79 | -0.17 | 1.01 | 1.01
Serpinb1b | no change with or without drug | 0.67 | 0.34 | 0.56 | 1
Cxcr3 | no change with or without drug | 0.9 | -0.84 | 1.69 | 1.02
Pgk2 | no change with or without drug | 0.67 | 0.17 | 0.67 | 1
Chil3 | no change with or without drug | -0.56 | -0.17 | -0.34 | 0.89
Caln1 | no change with or without drug | 0.67 | -0.17 | 0.9 | 1
Srp9 | no change with or without drug | -1.57 | -0.17 | -1.46 | 0.8
Lgi4 | low cell count with doxorubicin only (active) | -2.81 | -0.84 | -2.36 | 0.69
Amph | no change with or without drug | 0.34 | 1.01 | -0.22 | 0.97
Gsn | no change with or without drug | 0.56 | -0.67 | 1.24 | 0.99
Adamts18 | no change with or without drug | 0.22 | 0.51 | 0 | 0.96
Pak1ip1 | no change with or without drug | -0.9 | -1.18 | 0 | 0.86
Or8k3 | low cell count without drug only | -1.24 | -2.53 | 0.67 | 0.83
Gm10101 | no change with or without drug | -0.45 | 0.17 | -0.45 | 0.9
Casp9 | no change with or without drug | 0.67 | 1.18 | 0 | 1
Or5b96 | no change with or without drug | 0.22 | 0.67 | -0.11 | 0.96
A530016L24Rik | no change with or without drug | -0.22 | -0.51 | 0.22 | 0.92
Ddx4 | no change with or without drug | -0.11 | -0.51 | 0.34 | 0.93
Ctcf | no change with or without drug | 0.67 | -0.51 | 1.24 | 1
Atp8b3 | no change with or without drug | 0.22 | -0.17 | 0.45 | 0.96
Or4c108 | no change with or without drug | -0.67 | 0.51 | -0.9 | 0.88
Cetn1 | no change with or without drug | -0.9 | 0.34 | -1.01 | 0.86
Gpn3 | no change with or without drug | 1.24 | -1.18 | 2.36 | 1.05
Fam32a | no change with or without drug | 0 | 1.35 | -0.79 | 0.94
Pde6g | no change with or without drug | -0.22 | 0.51 | -0.45 | 0.92
Ccl21a | no change with or without drug | -1.12 | -0.17 | -1.01 | 0.84
Mrps15 | low cell count with doxorubicin only (active) | -2.02 | -0.51 | -1.69 | 0.76
